This note sets out measurements from PMC5401905, “Regulation of Inducible Potassium Transporter KdpFABC by the KdpD/KdpE Two-Component System in Mycobacterium smegmatis”.

The target of this data set is T1, KdpE (Mycobacterium smegmatis) (UniProt A0R399).
T1 sequence (looked up, limits assumed): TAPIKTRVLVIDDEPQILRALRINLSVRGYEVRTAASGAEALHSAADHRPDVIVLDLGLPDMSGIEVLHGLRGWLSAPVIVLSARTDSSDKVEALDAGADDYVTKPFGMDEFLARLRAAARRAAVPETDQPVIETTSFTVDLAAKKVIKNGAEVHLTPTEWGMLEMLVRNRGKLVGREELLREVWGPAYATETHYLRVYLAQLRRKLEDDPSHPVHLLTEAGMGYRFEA
As to the kind of experiment: EMSA. Particulars: 10 mM Tris pH 7.5 (20 C), 100 mM KCl, 1 mM EDTA, 0.1 mM DTT, 5% glycerol, 0.010 mg/mL BSA, 0.5 mM Na2ATP, 25 C, 1 h, 6% native PAGE in 0.25x TBE, recombinant protein, protein details: 6xHis (pET28a).

The mark [1] stands for this setting: 0.5 mM ATP, 22 bp stated as minimum.

A negative result means that nothing was seen under these conditions. At least one verdict rests on a figure or table, not on a statement of the authors. Protein sequences can lack the tags named with them. Construct, isoform or probe ends are uncertain for at least one entry. Weaker means in comparison with the reference protein, sequence or condition of that experiment.

Turning to “CCCGAGGCGCCGGCGCCCGGCCGAGCAGGTGCGTCGGGTGTCGGCAGGCGCGGCAGCCCGCGGAGCAAGCAGGGACATGAGCTTCGTCGAGTGGGTCACCCCTCGAACATCCATCAACCGAGCCATGACGACGAGTGTCCTGGCGGAGTCTTGGCCGCTGCTGTACAAACCTTGACGCCGCACTGACAGTCCGTCGGGAACCGCCTGTGCGCCGGCTTCGAACAAACGGTGTCAAATACGGCCGCCGCACCGTAAAGAAACCATCAAGGCCGCGTTCGCGGTCCTGAACTGGGCAGATCC (double strand) [PkdpF 300-bp probe]”, the binding result (no ATP, label: 6-FAM, probe letters rebuilt from the primers and the genome) is given as “binds more weakly”. For “CCGTAAAGAAACCATCA (double strand) [FPC-17]”, under setting [1], the binding result was “no binding”.

Regarding “CCGTAAAGAAACCATCAAGG (double strand) [FPC-20]”, under setting [1], the binding result is “no binding”.

“CGTAAAGAAACCATCAAGGCCGCGTT (double strand) [FPC-26]”: the binding result (0.5 mM ATP) is “no binding”. Regarding “GTAAAGAAACCATCAAGGCCGCGT (double strand) [FPC-24]”, the binding result (0.5 mM ATP) was “no binding”.
